# Source: PubChem BioAssay AID2685 (National Center for Advancing Translational Sciences (NCATS), 2010)
# This is one part of the list. Shown are side measurements of this screen, not its main read-out; they come without a call. Most of these compounds were active or inconclusive in the main read-out, so they are no random draw. The note in brackets gives the kind of curve behind each potency; many fits are weak.
# Assay: qHTS Assay for Lipid Storage Modulators in Drosophila S3 Cells;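 on cell number change: cells counted by Cell Tracker Red CMTPX staining in the red channel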
# Conditions: BODIPY lipid droplet fluorescence, 18-24 h; for cell number change: measured here: cell count max response, cells fed with added oleic acid
# How it was run: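 Drosophila S3 cells loaded with oleic acid (400 uM, as added) and compounds at several concentrations; lipid droplets imaged by 488-nm laser-scanning cytometry, 500–530 nm intensity and object ratio to cell channel. Percent activity normalized to 20 uM Triacsin C.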
# [1] = measured here: cell number channel AC50, cells fed with added oleic acid
# [2] = measured here: lipid fluorescence (Fed channel) AC50, cells fed with added oleic acid
SMILES,cell number change [%],AC50 [1],AC50 [2]
O=C(CCc1ccc(S(=O)(=O)NC2CCCCC2)cc1)NCc1ccccc1,82.8,"9.2 µM [rising, partial curve]","16.4 µM [rising, partial curve]"
CCOc1ccc(NS(=O)(=O)c2ccc(NS(=O)(=O)c3cccs3)cc2)cc1,-12.7,–,"14.6 µM [rising, partial curve]"
OCCN1CCN(c2ncnc3sc4c(c23)CCCC4)CC1,-13.7,–,–
COc1cccc(C2=CC(c3ccc(OC)c(OC)c3OC)n3nnnc3N2)c1 (centres undefined),-55.8,"0.0164 µM [falling, full curve, poor fit]","1.3 µM [falling, full curve, poor fit]"
COc1cc(C)c(Cl)c(C)c1S(=O)(=O)NCc1ccc2c(c1)OCO2,5.73,–,"3.26 µM [rising, full curve]"
NC(=O)c1ccsc1NC(=O)COC(=O)Cc1ccccc1Cl,-7.83,"0.13 µM [falling, full curve, poor fit]","14.6 µM [falling, partial curve, poor fit]"
Cc1cccc(N2CCN(C(=O)CCCn3c(=O)[nH]c4ccsc4c3=O)CC2C)c1 (centres undefined),-4.96,–,"29.1 µM [falling, single point]"
O=C(Nc1cc(S(=O)(=O)N2CCCCC2)ccc1N1CCOCC1)c1ccc(C(F)(F)F)cc1,-1.8,–,"0.082 µM [rising, full curve, poor fit]"
O=C1CCCC2=C1C1(CCCCC1)N=C(Nc1nc3ccccc3s1)N2,1.79,–,"0.366 µM [rising, partial curve, poor fit]"
COc1cc(C(=O)O/N=C(\N)c2ccc([N+](=O)[O-])cc2)cc(OC)c1OC,26,–,"18.4 µM [rising, single point]"
O=C(O)c1cc2ccc3ccccc3c2[nH]1,-0.395,–,–
O=C(CN1C(=O)NC2(CCCC2)C1=O)NNC(=O)c1ccc(F)cc1,-44.2,"25.9 µM [falling, single point]","25.9 µM [falling, partial curve, poor fit]"
CC(=O)NC(=O)NC1OC(=O)C(Cl)=C1Cl (centres undefined),-0.339,–,–
COc1ccc(CNC(=O)c2c(N)n(CCCN3CCOCC3)c3nc4ccccc4nc23)cc1,-73.1,"23.1 µM [falling, single point]","6.51 µM [rising, single point]"
CC(=O)c1ccc(N2CCN(S(=O)(=O)c3cn(C)cn3)CC2)cc1,2.14,–,–
Fc1ccc(CCN2CCN=C2Nc2ccccc2)cc1,-8.96,–,"0.291 µM [rising, partial curve, poor fit]"
COc1cc(C(=S)N2CCOCC2)ccc1O,14.6,–,–
COc1ccc(NC(=O)c2cc3ccccc3cc2O)cc1,–,–,"29.1 µM [falling, single point]"
COC(=O)c1cc(NC(=O)c2c(Cl)cnn2C)cc(C(=O)OC)c1,–,"0.731 µM [rising, full curve, poor fit]","29.1 µM [rising, single point]"

# Reprinted from the entries so far (2 entries):
SMILES,cell number change [%],AC50 [1],AC50 [2]
COc1ccc(CNC(=O)c2c(N)n(CCCN3CCOCC3)c3nc4ccccc4nc23)cc1,-73.1,"23.1 µM [falling, single point]","6.51 µM [rising, single point]"
CC(=O)c1ccc(N2CCN(S(=O)(=O)c3cn(C)cn3)CC2)cc1,2.14,–,–

# Going on with the list.

SMILES,cell number change [%],AC50 [1],AC50 [2]
CC(Oc1ccc(Br)cc1Br)C(=O)Nc1cccnc1Cl (centres undefined),-26.3,–,"29.1 µM [falling, single point]"
COc1ccc(NC(=O)/C(C#N)=C/c2c(C)nn(-c3ccc(F)cc3)c2Cl)cc1OC,-32.2,"32.6 µM [falling, single point]","29.1 µM [falling, single point]"
COc1cccc(CN(C)CC(O)COc2cc(Cl)ccc2Cl)c1 (centres undefined),-36.6,"29.1 µM [falling, single point]","1.3 µM [rising, full curve, poor fit]"
O=C1N(Cc2ccccc2)c2ccc(Cl)cc2C12OCCO2,5.44,–,"0.461 µM [rising, partial curve, poor fit]"
CS(=O)(=O)c1ccc2nc(NC3(C(F)(F)F)N=C4SCCN4C3=O)sc2c1 (centres undefined),–,–,"0.00411 µM [rising, full curve, poor fit]"
COc1ccc(C(=O)NNC2=Nc3cccc4cccc2c34)cc1,35.4,"25.9 µM [rising, single point]","4.11 µM [rising, single point]"
COc1ccc(Cl)cc1NC(=O)CSc1nc2sccc2c(=O)[nH]1,-7.75,–,"4.11 µM [rising, single point]"
CCOC(=O)c1cc(-c2ccccc2)sc1NC(=O)c1cc(OC)c(OC)c(OC)c1,10.5,–,"0.517 µM [rising, single point]"
O=C(/C=C/c1ccco1)Nc1cc(Cl)ccc1C(=O)O,0.822,–,"6.51 µM [rising, single point]"
CSc1nc2ccc(S(=O)(=O)N3CCOCC3)cc2s1,–,"0.517 µM [falling, full curve]","0.291 µM [falling, partial curve, poor fit]"
O=C(N/C(=C\c1ccc(Br)cc1)C(=O)N1CCOCC1)c1ccc([N+](=O)[O-])cc1,2.86,–,"6.51 µM [falling, single point]"
CCc1cc(-c2nc(N)ncc2-c2ccc(Br)cc2)c(O)cc1OC,-38.8,"18.4 µM [falling, single point]","29.1 µM [falling, single point]"
CCCc1cc(C(=O)N2CCCC(N3CCN(c4ccccc4F)CC3)C2)n(C)n1 (centres undefined),10.5,–,"29.1 µM [falling, single point]"
CCc1ccc(NC(=O)c2ccc(Cn3cc([N+](=O)[O-])cn3)cc2)cc1,9.53,–,"0.0291 µM [rising, full curve, poor fit]"
CN1CCN(/C=N/c2c(C#N)cnn2Cc2ccccc2)CC1,-15.5,–,–
COc1nc(-c2cccc([N+](=O)[O-])c2)nc2ccccc12,26.2,"0.082 µM [rising, full curve, poor fit]",–
COc1cccc(NC(=S)NNC(=O)c2ccccc2OC(F)F)c1,69.8,"29.1 µM [rising, single point]",–
Cc1ccc2c(NC(=O)c3ccc(Br)o3)cccc2n1,5.6,–,–
